Results are given in words; binding and its absence hold for the method and conditions named. In cells and extracts the contact can be indirect. Some results given as binding are weak or reduced against the parent protein; the word gives no strength. For some assays here: Tags and fused reporters may be left off the sequences shown.

By UniProt entry, the sequences of proteins in these tests, tags left out.
UniProt P67809: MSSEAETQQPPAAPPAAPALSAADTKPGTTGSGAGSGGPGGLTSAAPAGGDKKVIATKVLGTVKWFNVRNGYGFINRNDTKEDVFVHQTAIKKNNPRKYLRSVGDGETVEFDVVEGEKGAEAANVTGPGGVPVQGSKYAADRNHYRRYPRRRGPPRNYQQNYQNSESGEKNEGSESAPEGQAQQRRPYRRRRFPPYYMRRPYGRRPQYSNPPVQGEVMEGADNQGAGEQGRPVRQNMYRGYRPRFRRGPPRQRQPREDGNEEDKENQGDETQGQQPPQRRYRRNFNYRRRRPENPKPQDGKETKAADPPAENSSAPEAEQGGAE

Assay [1] has as its target T1, EPS8L2 (endogenous, HCT116 cells) (human (endogenous in HCT116)) (UniProt Q9H6S3).
T1 sequence: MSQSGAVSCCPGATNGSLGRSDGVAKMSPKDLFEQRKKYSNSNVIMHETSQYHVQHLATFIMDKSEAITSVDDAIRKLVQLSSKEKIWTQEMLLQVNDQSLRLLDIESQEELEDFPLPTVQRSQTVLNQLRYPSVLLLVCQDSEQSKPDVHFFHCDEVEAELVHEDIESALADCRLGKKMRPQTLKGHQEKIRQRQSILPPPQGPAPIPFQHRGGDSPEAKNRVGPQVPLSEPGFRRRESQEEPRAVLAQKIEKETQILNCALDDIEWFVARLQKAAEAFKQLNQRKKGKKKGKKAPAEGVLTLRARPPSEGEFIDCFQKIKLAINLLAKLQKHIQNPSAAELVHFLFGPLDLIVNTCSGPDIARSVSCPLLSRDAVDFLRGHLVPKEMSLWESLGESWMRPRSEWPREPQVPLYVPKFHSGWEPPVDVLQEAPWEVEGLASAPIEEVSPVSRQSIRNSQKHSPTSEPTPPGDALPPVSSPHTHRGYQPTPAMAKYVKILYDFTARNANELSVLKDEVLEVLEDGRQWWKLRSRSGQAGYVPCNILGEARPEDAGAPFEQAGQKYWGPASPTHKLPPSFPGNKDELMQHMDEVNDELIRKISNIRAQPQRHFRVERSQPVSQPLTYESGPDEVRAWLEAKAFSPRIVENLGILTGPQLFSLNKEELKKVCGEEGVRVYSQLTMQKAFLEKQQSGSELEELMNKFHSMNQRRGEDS
As to the kind of experiment: co-IP; endogenous EPS8L2 and endogenous YBX1 in HCT116 cells; RIPA lysate, antibody overnight at 4 °C, Protein A/G agarose beads.

Assay [2] addresses T2, EPS8L2 with a C-terminal Flag tag (exogenous, in HEK293T cells) (human) (UniProt Q9H6S3).
T2 sequence: T1 sequence
Briefly: co-IP; exogenous EPS8L2 and exogenous YBX1 in HEK293T cells; RIPA lysate, antibody overnight at 4 °C, Protein A/G agarose beads.

As for “YBX1 (endogenous, HCT116 and SW480 cells) (from UniProt P67809 1-324)”, in assay [1], the binding entry is recorded as “binds”.

On to “YBX1 with a C-terminal His tag (exogenous, in HEK293T cells) (from UniProt P67809 1-324)”, for which the binding entry in assay [2] is “binds”.

The values are drawn from article PMC12335500.
